# Experimental data as given in patent US20060062758A1, “Tight junction modulator peptide PN159 for enhanced mucosal delivery of therapeutic compounds” (Nastech Pharmaceutical Comapny Inc., priority 2004, published 2006).
# The name of at least one read-out is uncertain.
# Assay: Chemical stability of PN159 in solution (stability indicating HPLC)
# Format: physicochemical
# Settings: 5° C.
# Experimental: The chemical stability of the PN159 was determined under therapeutically relevant storage conditions. A stability indicating HPLC method was employed. Solutions (50 mM) were stored at various pH (4.0, 7.3, and 9.0) and temperature (5° C., 25° C., 35° C., 40° C., and 50° C.) conditions. Samples at pH 4 contained 10 mM citrate buffer. Samples at pH 7.3 and 9.0 contained 10 mM phosphate buffer. Representative storage stability data (including the Arrhenius plot) are depicted in FIG. 6. […] For example, at 5° C. and pH 4.0 or pH7.3, there was essentially 100% recovery of PN159 for six month storage. […] The pH range of 4.0 to 7.3 and the temperature range of refrigerated to ambient are most relevant for intranasal formulations.
compound,measurement,setting,value
CC(C)C[C@H](NC(=O)[C@H](C)NC(=O)[C@H](CCCCN)NC(=O)[C@H](CC(C)C)NC(=O)[C@H](C)NC(=O)[C@H](CC(C)C)NC(=O)[C@H](CCCCN)NC(=O)[C@H](CC(C)C)NC(=O)[C@H](C)NC(=O)[C@H](CC(C)C)NC(=O)[C@@H](N)CCCCN)C(=O)N[C@@H](CCCCN)C(=O)N[C@@H](C)C(=O)N[C@@H](C)C(=O)N[C@@H](CC(C)C)C(=O)N[C@@H](CCCCN)C(=O)N[C@@H](CC(C)C)C(=O)N[C@@H](C)C(N)=O [PN159],recovery of PN159,"pH 4.0, six month storage",~100%
same,recovery of PN159,"pH7.3, six month storage",~100%
